Binding data for three molecules are collected here from PMC4747173.

Amino acid sequences for entries named in this document (tags omitted).
UniProt O14777: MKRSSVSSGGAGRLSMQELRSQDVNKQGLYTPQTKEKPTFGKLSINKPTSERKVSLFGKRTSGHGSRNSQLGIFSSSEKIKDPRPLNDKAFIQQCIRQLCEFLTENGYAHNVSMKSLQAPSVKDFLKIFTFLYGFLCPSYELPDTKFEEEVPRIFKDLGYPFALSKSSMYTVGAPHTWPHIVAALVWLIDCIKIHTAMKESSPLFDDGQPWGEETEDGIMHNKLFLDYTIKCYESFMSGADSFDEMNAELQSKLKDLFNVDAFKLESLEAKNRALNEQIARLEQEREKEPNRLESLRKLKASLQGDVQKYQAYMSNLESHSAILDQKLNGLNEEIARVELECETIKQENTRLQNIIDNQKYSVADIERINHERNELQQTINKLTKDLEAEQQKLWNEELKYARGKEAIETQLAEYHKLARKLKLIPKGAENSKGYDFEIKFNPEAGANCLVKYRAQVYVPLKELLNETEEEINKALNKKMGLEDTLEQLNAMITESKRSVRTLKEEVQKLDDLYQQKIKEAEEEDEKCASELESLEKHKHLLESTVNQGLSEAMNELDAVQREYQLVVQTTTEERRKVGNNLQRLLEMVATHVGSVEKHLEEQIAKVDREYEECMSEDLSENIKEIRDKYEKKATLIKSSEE

The target in test [1] is FLAG-HA-Hec1 (stably expressed in HeLa cells) (UniProt O14777). The test can be described thus: affinity purification with mass spectrometry; tandem affinity purification of the Hec1-containing complex from HeLa cells stably expressing FLAG-HA (FH)-Hec1; SDS-PAGE, mass spectrometry.
The target of test [2] is T1, FLAG-HA-ASPP2 (stably expressed in HeLa cells) (UniProt Q13625).
T1 sequence: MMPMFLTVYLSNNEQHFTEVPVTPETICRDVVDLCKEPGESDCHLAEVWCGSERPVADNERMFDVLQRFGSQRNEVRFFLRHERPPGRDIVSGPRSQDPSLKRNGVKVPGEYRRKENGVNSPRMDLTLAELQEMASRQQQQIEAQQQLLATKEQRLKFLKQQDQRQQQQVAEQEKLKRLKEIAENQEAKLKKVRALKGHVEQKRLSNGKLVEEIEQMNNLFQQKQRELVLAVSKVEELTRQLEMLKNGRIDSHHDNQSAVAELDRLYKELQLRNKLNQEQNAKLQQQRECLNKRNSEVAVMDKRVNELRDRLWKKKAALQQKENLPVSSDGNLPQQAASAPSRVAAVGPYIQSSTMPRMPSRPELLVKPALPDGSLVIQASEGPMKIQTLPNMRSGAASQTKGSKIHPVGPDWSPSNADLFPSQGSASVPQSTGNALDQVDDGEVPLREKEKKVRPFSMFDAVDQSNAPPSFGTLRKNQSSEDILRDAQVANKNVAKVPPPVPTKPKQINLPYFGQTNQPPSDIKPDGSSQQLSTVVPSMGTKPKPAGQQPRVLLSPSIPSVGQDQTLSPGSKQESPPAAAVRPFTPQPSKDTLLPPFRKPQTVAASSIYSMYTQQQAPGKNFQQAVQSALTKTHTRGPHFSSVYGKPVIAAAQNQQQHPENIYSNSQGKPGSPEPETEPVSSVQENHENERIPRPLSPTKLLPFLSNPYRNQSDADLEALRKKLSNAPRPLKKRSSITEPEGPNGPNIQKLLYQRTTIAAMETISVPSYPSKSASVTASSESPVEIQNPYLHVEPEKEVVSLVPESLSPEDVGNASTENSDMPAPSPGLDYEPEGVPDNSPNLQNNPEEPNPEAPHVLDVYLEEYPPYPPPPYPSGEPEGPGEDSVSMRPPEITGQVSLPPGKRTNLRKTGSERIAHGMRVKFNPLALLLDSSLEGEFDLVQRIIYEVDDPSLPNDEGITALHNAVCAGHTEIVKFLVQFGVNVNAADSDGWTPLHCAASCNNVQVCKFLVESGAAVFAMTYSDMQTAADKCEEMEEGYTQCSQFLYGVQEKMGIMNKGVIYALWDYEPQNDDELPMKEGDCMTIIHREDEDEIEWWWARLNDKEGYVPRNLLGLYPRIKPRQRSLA
The test can be described thus: affinity purification with mass spectrometry; tandem affinity purification (anti-FLAG M2 agarose, FLAG peptide elution, then anti-HA agarose, HA peptide elution) from HeLa cells stably expressing FH-ASPP1 or FH-ASPP2; lysis in BC100 buffer (20 mM Tris-Cl pH 7.9, 100 mM NaCl, 0.2 mM EDTA, 20% glycerol) with 0.2% Triton X-100; proteins found in MOCK HeLa cells omitted.

For test [3], the target named is T2, FLAG-HA-ASPP1 (stably expressed in HeLa cells) (UniProt Q96KQ4).
T2 sequence: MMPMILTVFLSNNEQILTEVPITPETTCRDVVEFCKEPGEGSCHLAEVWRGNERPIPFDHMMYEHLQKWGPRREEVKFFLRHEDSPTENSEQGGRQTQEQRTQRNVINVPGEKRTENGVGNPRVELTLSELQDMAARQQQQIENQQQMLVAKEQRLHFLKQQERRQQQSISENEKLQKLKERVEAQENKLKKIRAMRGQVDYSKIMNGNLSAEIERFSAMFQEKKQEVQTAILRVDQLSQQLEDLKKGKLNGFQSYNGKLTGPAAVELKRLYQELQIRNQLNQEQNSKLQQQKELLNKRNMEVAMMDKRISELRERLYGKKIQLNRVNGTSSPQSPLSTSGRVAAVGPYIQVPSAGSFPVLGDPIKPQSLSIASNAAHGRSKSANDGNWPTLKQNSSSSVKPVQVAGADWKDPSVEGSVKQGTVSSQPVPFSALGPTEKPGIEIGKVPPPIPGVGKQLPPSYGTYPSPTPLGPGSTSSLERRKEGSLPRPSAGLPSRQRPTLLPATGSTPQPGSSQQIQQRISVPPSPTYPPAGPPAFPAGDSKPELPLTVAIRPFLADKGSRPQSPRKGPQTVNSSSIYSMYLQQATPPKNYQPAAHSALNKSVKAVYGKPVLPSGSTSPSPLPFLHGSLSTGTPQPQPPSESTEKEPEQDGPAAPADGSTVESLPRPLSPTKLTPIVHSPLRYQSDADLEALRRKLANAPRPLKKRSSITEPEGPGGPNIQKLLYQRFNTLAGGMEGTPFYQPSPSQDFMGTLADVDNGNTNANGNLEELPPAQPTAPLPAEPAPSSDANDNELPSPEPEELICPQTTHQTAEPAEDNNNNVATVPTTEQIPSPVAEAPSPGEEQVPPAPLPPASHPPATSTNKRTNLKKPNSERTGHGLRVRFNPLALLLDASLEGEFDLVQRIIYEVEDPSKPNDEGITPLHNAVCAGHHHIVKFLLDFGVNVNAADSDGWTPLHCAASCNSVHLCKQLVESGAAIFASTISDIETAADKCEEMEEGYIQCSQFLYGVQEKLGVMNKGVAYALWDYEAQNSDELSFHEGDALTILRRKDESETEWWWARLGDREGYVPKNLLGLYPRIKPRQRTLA
The description is as above.

These are yes or no findings as the source states them, for the method shown. Binding seen in cells or lysates may run through a third protein. These calls come from enrichment with a bait or labelling near it, and not all partners need be listed. For some of these results: Where a sequence is shown, tags or fusion partners need not be part of it.

B1: PPM1B (endogenous) (enzyme, UniProt O75688 1-479)
chain: MGAFLDKPKTEKHNAHGAGNGLRYGLSSMQGWRVEMEDAHTAVVGIPHGLEDWSFFAVYDGHAGSRVANYCSTHLLEHITTNEDFRAAGKSGSALELSVENVKNGIRTGFLKIDEYMRNFSDLRNGMDRSGSTAVGVMISPKHIYFINCGDSRAVLYRNGQVCFSTQDHKPCNPREKERIQNAGGSVMIQRVNGSLAVSRALGDYDYKCVDGKGPTEQLVSPEPEVYEILRAEEDEFIILACDGIWDVMSNEELCEYVKSRLEVSDDLENVCNWVVDTCLHKGSRDNMSIVLVCFSNAPKVSDEAVKKDSELDKHLESRVEEIMEKSGEEGMPDLAHVMRILSAENIPNLPPGGGLAGKRNVIEAVYSRLNPHRESDGASDEAEESGSQGKLVEALRQMRINHRGNYRQLLEEMLTSYRLAKVEGEESPAEPAATATSSNSDAGNPVTMQESHTESESGLAELDSSNEDAGTKMSGEKI
Take B1: the binding entry in test [1] was “binds”.

B2: RASSF7 (endogenous) (protein, UniProt Q02833 1-373)
chain: MLLGLAAMELKVWVDGIQRVVCGVSEQTTCQEVVIALAQAIGQTGRFVLVQRLREKERQLLPQECPVGAQATCGQFASDVQFVLRRTGPSLAGRPSSDSCPPPERCLIRASLPVKPRAALGCEPRKTLTPEPAPSLSRPGPAAPVTPTPGCCTDLRGLELRVQRNAEELGHEAFWEQELRREQAREREGQARLQALSAATAEHAARLQALDAQARALEAELQLAAEAPGPPSPMASATERLHQDLAVQERQSAEVQGSLALVSRALEAAERALQAQAQELEELNRELRQCNLQQFIQQTGAALPPPPRPDRGPPGTQGPLPPAREESLLGAPSESHAGAQPRPRGGPHDAELLEVAAAPAPEWCPLAAQPQAL
In the case of B2, the binding entry in test [2] and in test [3] was “binds” throughout.

B3: ASPP2 (endogenous) (protein, UniProt Q13625 1-1128)
chain: MMPMFLTVYLSNNEQHFTEVPVTPETICRDVVDLCKEPGESDCHLAEVWCGSERPVADNERMFDVLQRFGSQRNEVRFFLRHERPPGRDIVSGPRSQDPSLKRNGVKVPGEYRRKENGVNSPRMDLTLAELQEMASRQQQQIEAQQQLLATKEQRLKFLKQQDQRQQQQVAEQEKLKRLKEIAENQEAKLKKVRALKGHVEQKRLSNGKLVEEIEQMNNLFQQKQRELVLAVSKVEELTRQLEMLKNGRIDSHHDNQSAVAELDRLYKELQLRNKLNQEQNAKLQQQRECLNKRNSEVAVMDKRVNELRDRLWKKKAALQQKENLPVSSDGNLPQQAASAPSRVAAVGPYIQSSTMPRMPSRPELLVKPALPDGSLVIQASEGPMKIQTLPNMRSGAASQTKGSKIHPVGPDWSPSNADLFPSQGSASVPQSTGNALDQVDDGEVPLREKEKKVRPFSMFDAVDQSNAPPSFGTLRKNQSSEDILRDAQVANKNVAKVPPPVPTKPKQINLPYFGQTNQPPSDIKPDGSSQQLSTVVPSMGTKPKPAGQQPRVLLSPSIPSVGQDQTLSPGSKQESPPAAAVRPFTPQPSKDTLLPPFRKPQTVAASSIYSMYTQQQAPGKNFQQAVQSALTKTHTRGPHFSSVYGKPVIAAAQNQQQHPENIYSNSQGKPGSPEPETEPVSSVQENHENERIPRPLSPTKLLPFLSNPYRNQSDADLEALRKKLSNAPRPLKKRSSITEPEGPNGPNIQKLLYQRTTIAAMETISVPSYPSKSASVTASSESPVEIQNPYLHVEPEKEVVSLVPESLSPEDVGNASTENSDMPAPSPGLDYEPEGVPDNSPNLQNNPEEPNPEAPHVLDVYLEEYPPYPPPPYPSGEPEGPGEDSVSMRPPEITGQVSLPPGKRTNLRKTGSERIAHGMRVKFNPLALLLDSSLEGEFDLVQRIIYEVDDPSLPNDEGITALHNAVCAGHTEIVKFLVQFGVNVNAADSDGWTPLHCAASCNNVQVCKFLVESGAAVFAMTYSDMQTAADKCEEMEEGYTQCSQFLYGVQEKMGIMNKGVIYALWDYEPQNDDELPMKEGDCMTIIHREDEDEIEWWWARLNDKEGYVPRNLLGLYPRIKPRQRSLA
With B3, the binding result in test [1] is listed as “binds”.
